For this experiment, the target named is insect cell purified His-AKT1, P31749. As to the kind of experiment: pull-down; in vitro binding of insect cell purified PDK1 and His-AKT1; copper (5 uM) and TTM (20 uM) added as indicated; His-AKT1 pulled down on Ni-NTA beads; washed four times with NETN buffer with 500 mM NaCl; immunoblot; both purified. Particulars: remark: other sources report otherwise. Background: Immunoblotting shows a protein as a band on a membrane.

No constants are given. Whether binding was seen depends on the method and setting. Some entries that bind do so weakly or less than the wild type.

B1: insect cell purified PDK1, O15530 1-556 (enzyme)
chain: MARTTSQLYDAVPIQSSVVLCSCPSPSMVRTQTESSTPPGIPGGSRQGPAMDGTAAEPRPGAGSLQHAQPPPQPRKKRPEDFKFGKILGEGSFSTVVLARELATSREYAIKILEKRHIIKENKVPYVTRERDVMSRLDHPFFVKLYFTFQDDEKLYFGLSYAKNGELLKYIRKIGSFDETCTRFYTAEIVSALEYLHGKGIIHRDLKPENILLNEDMHIQITDFGTAKVLSPESKQARANSFVGTAQYVSPELLTEKSACKSSDLWALGCIIYQLVAGLPPFRAGNEYLIFQKIIKLEYDFPEKFFPKARDLVEKLLVLDATKRLGCEEMEGYGPLKAHPFFESVTWENLHQQTPPKLTAYLPAMSEDDEDCYGNYDNLLSQFGCMQVSSSSSSHSLSASDTGLPQRSGSNIEQYIHDLDSNSFELDLQFSEDEKRLLLEKQAGGNPWHQFVENNLILKMGPVDKRKGLFARRRQLLLTEGPHLYYVDPVNKVLKGEIPWSQELRPEAKNFKTFFVHTPNRTYYLMDPSGNAHKWCRKIQEVWRQRYQSHPDAAVQ
Consider B1, for which the binding result is “binds”.

Values taken from paper PMC8456201.
